Assay results: publication PMC12284142

Biological target: T1, Interleukin enhancer-binding factor 3 (ILF3) (human (endogenous in SW620)) (UniProt Q12906)
T1 sequence: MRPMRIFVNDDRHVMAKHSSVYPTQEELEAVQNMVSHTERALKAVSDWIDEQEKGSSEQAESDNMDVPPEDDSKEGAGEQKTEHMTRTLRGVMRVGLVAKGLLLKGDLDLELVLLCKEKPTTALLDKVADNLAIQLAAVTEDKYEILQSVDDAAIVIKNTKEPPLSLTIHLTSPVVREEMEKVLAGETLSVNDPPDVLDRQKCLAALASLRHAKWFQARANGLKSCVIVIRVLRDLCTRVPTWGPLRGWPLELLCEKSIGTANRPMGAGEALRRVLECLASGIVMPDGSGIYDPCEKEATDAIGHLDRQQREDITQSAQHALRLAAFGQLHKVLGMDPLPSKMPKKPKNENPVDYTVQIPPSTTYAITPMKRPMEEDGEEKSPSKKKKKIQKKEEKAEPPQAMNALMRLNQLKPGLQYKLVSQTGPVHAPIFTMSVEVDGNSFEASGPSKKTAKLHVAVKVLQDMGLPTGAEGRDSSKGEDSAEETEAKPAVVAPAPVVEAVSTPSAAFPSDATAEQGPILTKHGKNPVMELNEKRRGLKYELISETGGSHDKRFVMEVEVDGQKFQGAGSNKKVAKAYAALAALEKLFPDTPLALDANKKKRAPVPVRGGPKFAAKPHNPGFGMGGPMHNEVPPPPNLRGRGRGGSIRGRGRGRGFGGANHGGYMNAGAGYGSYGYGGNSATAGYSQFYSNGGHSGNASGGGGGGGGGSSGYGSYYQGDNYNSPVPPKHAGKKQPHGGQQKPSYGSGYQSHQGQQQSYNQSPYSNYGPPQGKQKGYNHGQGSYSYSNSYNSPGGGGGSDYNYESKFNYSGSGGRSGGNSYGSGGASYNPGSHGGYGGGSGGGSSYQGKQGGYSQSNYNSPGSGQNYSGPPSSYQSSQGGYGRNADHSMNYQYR
Assay: affinity purification with mass spectrometry; ILF3 pulled down from SW620 cells with or without TNF-α treatment, then LC-MS; 141 differential proteins intersected with 362 E3 ubiquitin ligases of the UbiNet database

binding: binds
B1: E3 ligase TRIM17 (protein, UniProt Q9Y577 1-477)
chain: MEAVELARKLQEEATCSICLDYFTDPVMTTCGHNFCRACIQLSWEKARGKKGRRKRKGSFPCPECREMSPQRNLLPNRLLTKVAEMAQQHPGLQKQDLCQEHHEPLKLFCQKDQSPICVVCRESREHRLHRVLPAEEAVQGYKLKLEEDMEYLREQITRTGNLQAREEQSLAEWQGKVKERRERIVLEFEKMNLYLVEEEQRLLQALETEEEETASRLRESVACLDRQGHSLELLLLQLEERSTQGPLQMLQDMKEPLSRKNNVSVQCPEVAPPTRPRTVCRVPGQIEVLRGFLEDVVPDATSAYPYLLLYESRQRRYLGSSPEGSGFCSKDRFVAYPCAVGQTAFSSGRHYWEVGMNITGDALWALGVCRDNVSRKDRVPKCPENGFWVVQLSKGTKYLSTFSALTPVMLMEPPSHMGIFLDFEAGEVSFYSVSDGSHLHTYSQATFPGPLQPFFCLGAPKSGQMVISTVTMWVKG

These are yes or no findings as the source states them, for the method shown. Binding seen in cells or lysates may run through a third protein. Here binding means that the protein was enriched with, or labelled near, the bait; the list need not be complete.
